According to patent US20160074509A1:
These are yes or no findings as the source states them, for the method shown. Some results given as binding are weak or reduced against the parent protein; the word gives no strength.

Biological target: T1, N-terminally biotinylated O-Q11
T1 sequence (peptide, single biotin tag at the N-terminus, directly adjacent to the OVA sequence): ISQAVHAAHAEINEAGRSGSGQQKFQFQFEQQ
Experiment: TEM, 5 nm streptavidin-gold staining of fibrils

5 nm colloidal gold conjugated to streptavidin (Sigma) (from UniProt P22629 37-163)
binding: binds
